Measured data: PubChem BioAssay AID720710 (VTT Finland, 2013)

- Purpose: 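Knock-downs that leave cyclin E-high cells sensitive to replication stress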 (primary screen)
- Cell system: human U-2 OS bone cancer cells, parental and a cyclin E (CCNE1) overexpressing line
- Reagents: single siRNA against human genes, 1 µM siRNA in the printed spot mix
- Time to read-out: 67 h
- Conditions: half the arrays: hydroxyurea 2 mM for 16 h, then 3 h recovery; other arrays untreated
- Detection: 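DNA synthesis measured as imaged EdU uptake per nucleus (DAPI) at 67 h, normalised to subgrid median and given as z-score versus non-targeting controls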
- Direction: EdU z-score, cyclin E line, hydroxyurea: higher = more DNA synthesis than non-targeting controls
The whole screen tested about 1,380 reagents; shown is a part drawn at random. 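One array per condition without replicates; hydroxyurea arrays received 2 mM for 16 h plus 3 h recovery.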 Further read-outs or replicates are left out here. Reagent sequences are not shown.

H1-4 [SID164222080]: EdU z-score, cyclin E line, hydroxyurea = -0.541
H1-4 [SID164222081]: EdU z-score, cyclin E line, hydroxyurea = 0.00203
FEN1 [SID164221984]: EdU z-score, cyclin E line, hydroxyurea = -1.45
FEN1 [SID164221985]: EdU z-score, cyclin E line, hydroxyurea = 1.3
DDB1 [SID164221874]: EdU z-score, cyclin E line, hydroxyurea = 0.196
DDB1 [SID164221875]: EdU z-score, cyclin E line, hydroxyurea = 1.1
EZH2 [SID164221956]: EdU z-score, cyclin E line, hydroxyurea = -1.67
EZH2 [SID164221957]: EdU z-score, cyclin E line, hydroxyurea = 0.383
MAPK12 [SID164222268]: EdU z-score, cyclin E line, hydroxyurea = -0.732
MAPK12 [SID164222269]: EdU z-score, cyclin E line, hydroxyurea = -0.489

Next part, starting with the last 2 of the part before.
MAPK12 [SID164222268]: EdU z-score, cyclin E line, hydroxyurea = -0.732
MAPK12 [SID164222269]: EdU z-score, cyclin E line, hydroxyurea = -0.489
NIPBL [SID164222422]: EdU z-score, cyclin E line, hydroxyurea = -0.0652
NIPBL [SID164222423]: EdU z-score, cyclin E line, hydroxyurea = 1.6
RPA2 [SID164222688]: EdU z-score, cyclin E line, hydroxyurea = 0.00622
RPA2 [SID164222689]: EdU z-score, cyclin E line, hydroxyurea = 0.174
PRDM8 [SID164222552]: EdU z-score, cyclin E line, hydroxyurea = -1.54
PRDM8 [SID164222553]: EdU z-score, cyclin E line, hydroxyurea = 0.771
H2BC10 [SID164222104]: EdU z-score, cyclin E line, hydroxyurea = -0.0724
H2BC10 [SID164222105]: EdU z-score, cyclin E line, hydroxyurea = 1.01
XRCC2 [SID164222998]: EdU z-score, cyclin E line, hydroxyurea = -0.713
XRCC2 [SID164222999]: EdU z-score, cyclin E line, hydroxyurea = 1.75
DCLRE1C [SID164221872]: EdU z-score, cyclin E line, hydroxyurea = -1.76
DCLRE1C [SID164221873]: EdU z-score, cyclin E line, hydroxyurea = -1.22
NSMCE2 [SID164222434]: EdU z-score, cyclin E line, hydroxyurea = 0.429
NSMCE2 [SID164222435]: EdU z-score, cyclin E line, hydroxyurea = 1.02
H4C8 [SID164222130]: EdU z-score, cyclin E line, hydroxyurea = -0.713
H4C8 [SID164222131]: EdU z-score, cyclin E line, hydroxyurea = 2.56
HIRIP3 [SID164222072]: EdU z-score, cyclin E line, hydroxyurea = -0.239
HIRIP3 [SID164222073]: EdU z-score, cyclin E line, hydroxyurea = -0.14
SMC6 [SID164222800]: EdU z-score, cyclin E line, hydroxyurea = 0.211
SMC6 [SID164222801]: EdU z-score, cyclin E line, hydroxyurea = 0.327
RAD51 [SID164222594]: EdU z-score, cyclin E line, hydroxyurea = -1.07
RAD51 [SID164222595]: EdU z-score, cyclin E line, hydroxyurea = 1.56
